Reference: PMC3401106
Results are given in words; binding and its absence hold for the method and conditions named. In cells and extracts the contact can be indirect. Some entries that bind do so weakly or less than the wild type. Sequences can lack the tags named with a protein.

Target: A. thaliana leucine zipper bZIP63 fused to YFPN and YFPC (Arabidopsis thaliana) (UniProt B9DGI8)
Test: split reporter; BiFC in A. thaliana mesophyll protoplasts; fusions to YFPN (pUC-SPYNE) and YFPC (pUC-SPYCE) co-transfected; 16 h in the dark at 22 C; confocal microscopy

binding: binds
B1: A. thaliana leucine zipper bZIP63 fused to YFPN and YFPC (protein, UniProt B9DGI8 1-314)
chain: MEKVFSDEEISGNHHWSVNGMTSLNRSASEWAFNRFIQESSAAADDGESTTACGVSVSSPPNVPVDSEEYRAFLKSKLNLACAAVAMKRGTFIKPQDTSGRSDNGGANESEQASLASSKATPMMSSAITSGSELSGDEEEADGETNMNPTNVKRVKRMLSNRESARRSRRRKQAHLSELETQVSQLRVENSKLMKGLTDVTQTFNDASVENRVLKANIETLRAKVKMAEETVKRLTGFNPMFHNMPQIVSTVSLPSETSNSPDTTSSQVTTPEIISSGNKGKALIGCKMNRTASMRRVESLEHLQKRIRSVGDQ
